Patent publication US6323315A (priority 2000, dated 2001)

Test: general procedure: solution-phase peptide synthesis
Conditions: coupling step

Substance	step yield
Dov-Val-Dil-Dap-isopropylamide	96% yield
Dov-Val-Dil-Dap-methylamide	82%
